Laboratory results reported in patent US4495199A, “Dioxolanic amine with pharmacological activity, its method of preparation, the pharmaceutical compositions containing same and their use in human medicine” (priority 1982, dated 1985).

System: mouse
Assay: Acute toxicity, oral, mouse
Assay type: in vivo
Method: The respective lethal dose 50 was calculated according to the method of Litchfield and Wilcoxon (Jl. Pharmacol. Exptl. 96 99, 1949).

## CCCCc1oc2ccccc2c1C(=O)c1cc(I)c(OCCN(CC)CC)c(I)c1 [Amiodarona, reference compound]
  LD50: > 4000 mg/kg
